Measured values taken from patent US10131656B2, “Organic thin film transistor, method of manufacturing organic thin film transistor, organic thin film transistor material, organic thin film transistor composition, organic semiconductor film, and compound” (FUJIFILM Corporation, priority 2015, dated 2018).

Experiment: Evaluation of carrier mobility of organic thin film transistor (FET element)
Settings: organic thin film transistor with 50 nm organic semiconductor film of the compound; −80 V source-drain, gate 20 V to −100 V

Structure (SMILES): CCCCCCCCCCC(CCCCCCCC)CCn1c(=O)c2ccc3c4ccc5c(=O)n(CCC(CCCCCCCC)CCCCCCCCCC)c(=O)c6cc7sc8cc(c1=O)c2c3c8c7c4c56 (centres unmarked) [Comparative Compound 1]
- Carrier mobility: C (those having carrier mobility of less than 10^−4 cm^2/Vs were evaluated as “C”)

Structure (SMILES): S=c1c2ccc3c4ccc5c(=S)n(C6CCCCC6)c(=S)c6cc7sc8cc(c(=S)n1C1CCCCC1)c2c3c8c7c4c56 [Example Compound 3]
- Carrier mobility: A (Those having carrier mobility of 10^−2 cm^2/Vs or greater were evaluated as “A”)
